Laboratory results reported in article doi:10.1101/2021.08.22.457263.
Results are given in words; binding and its absence hold for the method and conditions named. For some of these results: In cells and extracts the contact can be indirect. Some results given as binding are weak or reduced against the parent protein; the word gives no strength. Where a sequence is shown, tags or fusion partners need not be part of it.

The chains behind the UniProt entries cited, without tags or fusion partners. Residues count along the entry.
UniProt P02787, residues 20-698: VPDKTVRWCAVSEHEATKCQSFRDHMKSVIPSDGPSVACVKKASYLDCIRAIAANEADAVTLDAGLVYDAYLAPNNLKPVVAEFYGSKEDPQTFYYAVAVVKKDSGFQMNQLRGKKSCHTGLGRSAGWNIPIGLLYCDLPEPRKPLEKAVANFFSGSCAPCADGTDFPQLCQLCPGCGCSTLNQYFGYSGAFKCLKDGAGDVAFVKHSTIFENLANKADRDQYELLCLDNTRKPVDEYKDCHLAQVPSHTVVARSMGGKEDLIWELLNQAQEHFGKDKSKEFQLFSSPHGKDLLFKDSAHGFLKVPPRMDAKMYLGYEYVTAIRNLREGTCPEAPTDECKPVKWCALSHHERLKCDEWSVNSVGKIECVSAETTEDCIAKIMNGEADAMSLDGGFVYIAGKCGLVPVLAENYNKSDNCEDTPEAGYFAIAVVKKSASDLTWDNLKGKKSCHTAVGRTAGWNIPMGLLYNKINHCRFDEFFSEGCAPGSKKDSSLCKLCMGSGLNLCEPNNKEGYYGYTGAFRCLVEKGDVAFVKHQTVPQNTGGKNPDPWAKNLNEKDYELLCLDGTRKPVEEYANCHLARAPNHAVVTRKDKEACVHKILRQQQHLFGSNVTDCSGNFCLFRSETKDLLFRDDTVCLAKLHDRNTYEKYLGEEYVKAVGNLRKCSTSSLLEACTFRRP

T1: M. catarrhalis transferrin binding protein B with C-terminal flag-tag (Mcat TbpB-flag) (Moraxella catarrhalis) (UniProt P0DTW7)
T1 sequence (chain, lipidated): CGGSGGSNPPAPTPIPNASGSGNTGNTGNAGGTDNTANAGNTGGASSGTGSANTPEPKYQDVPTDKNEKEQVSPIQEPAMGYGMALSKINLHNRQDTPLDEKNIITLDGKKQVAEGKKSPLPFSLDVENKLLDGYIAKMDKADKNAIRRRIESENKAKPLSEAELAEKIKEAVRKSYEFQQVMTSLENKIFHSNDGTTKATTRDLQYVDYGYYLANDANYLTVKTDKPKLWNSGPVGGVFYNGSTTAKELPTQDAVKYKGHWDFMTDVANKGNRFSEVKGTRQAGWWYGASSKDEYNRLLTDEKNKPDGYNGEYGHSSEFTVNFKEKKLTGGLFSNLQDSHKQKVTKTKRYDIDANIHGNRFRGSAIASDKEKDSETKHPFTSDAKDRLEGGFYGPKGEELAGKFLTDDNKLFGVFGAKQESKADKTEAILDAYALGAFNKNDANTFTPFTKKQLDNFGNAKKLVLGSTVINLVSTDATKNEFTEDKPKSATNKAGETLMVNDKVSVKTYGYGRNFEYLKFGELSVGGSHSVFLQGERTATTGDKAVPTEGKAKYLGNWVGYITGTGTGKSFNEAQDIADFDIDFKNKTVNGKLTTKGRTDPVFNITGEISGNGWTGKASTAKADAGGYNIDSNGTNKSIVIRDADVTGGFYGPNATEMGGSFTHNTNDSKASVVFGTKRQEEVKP

T2: His-tagged E. coli Skp, purified (E. coli) (UniProt P0AEU7)
T2 sequence: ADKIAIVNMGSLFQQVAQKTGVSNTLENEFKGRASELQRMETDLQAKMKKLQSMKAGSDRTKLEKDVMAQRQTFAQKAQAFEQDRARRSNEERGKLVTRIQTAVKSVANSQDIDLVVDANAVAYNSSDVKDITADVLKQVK

B1: Periplasmic chaperone Skp of E. coli, endogenous (protein, UniProt P0AEU7 21-161)
chain: T2 sequence
B2: His-tagged E. coli LolA, purified (protein, UniProt P61316 22-203)
chain: DAASDLKSRLDKVSSFHASFTQKVTDGSGAAVQEGQGDLWVKRPNLFNWHMTQPDESILVSDGKTLWFYNPFVEQATATWLKDATGNTPFMLIARNQSSDWQQYNIKQNGDDFVLTPKASNGNLKQFTINVGRDGTIHQFSAVEQDDQRSSYQLKSQQNGAVDAAKFTFTPPQGVTVDDQRK
B3: M. catarrhalis transferrin binding protein B with C-terminal flag-tag (Mcat TbpB-flag) (protein, UniProt P0DTW7 21-706)
chain: T1 sequence (chain, lipidated)
modifications: lipidated

What was measured:
[1] = biological target: T1, M. catarrhalis transferrin binding protein B with C-terminal flag-tag (Mcat TbpB-flag) (Moraxella catarrhalis); experiment: far-Western, overlay or dot blot
[2] = biological target: T1, M. catarrhalis transferrin binding protein B with C-terminal flag-tag (Mcat TbpB-flag) (Moraxella catarrhalis); experiment: pull-down
[3] = biological target: T2, His-tagged E. coli Skp, purified (E. coli); experiment: pull-down

Row | Molecule | binding [2] | other results
1 | Biotinylated human transferrin (from UniProt P02787 20-698) |  | binding [1]: binds
2 | B1 | binds | 
3 | B2 | binds | 
4 | B3 |  | binding [3]: binds
